# According to patent US20200377510A1, “DERIVATIVES OF PIPERLONGUMINE AND USES THEREOF” (Auransa Inc., priority 2019, published 2020):
# Test system: collagen-induced arthritis
# Assay: Collagen-induced arthritis in female Lewis rats
# Assay type: in vivo
# Details: 3 mg/kg QD PO, vs vehicle control rats
# Protocol: Animals were anesthetized with isoflurane and given intradermal injections of 400 μl (2×200 μl) of Porcine Type II collagen in Freund's incomplete adjuvant spread equally over two sites on the back on study days 0. On day 7, a boost injection was given; intradermal injections of 100 μl of Porcine Type II collagen in Freund's incomplete adjuvant. Collagen was prepared by making a 2 mg/ml solution in 0.01 N Acetic acid. Equal volumes of collagen and Freund's incomplete adjuvant were emulsified by hand mixing with the syringes partially submerged in ice water for 10 minutes, at which point a bead of this material will hold its form when placed in water. On study day 6, the animals were randomized by body weight into treatment groups and dosing was initiated. […] Efficacy evaluation was based on animal body weights, ankle caliper measurements, and final hind paw weights. Terminal serum was analyzed for anti-type II collagen antibody (IgG) concentrations. The rats were weighed on day 6 for randomization, on day 9, and daily on days 11 through 17. Caliper measurements of right and left ankle diameters were taken on study days 9 (baseline) and 11 through 17. Ankle caliper measurements were made with a digital micrometer ([…]; Fowler & NSK). Baseline measurements were taken using one ankle with values rounded to one thousandth of an inch. […]
compound,measurement,value
CCS(=O)(=O)N1CC(CC#N)(n2cc(-c3ncnc4[nH]ccc34)cn2)C1 [baricitinib],inhibition of body weight loss,42%
